Laboratory results: paper PMC3510032
Results are given in words; binding and its absence hold for the method and conditions named. Binding calls can cover weak binding; strength is not graded here. Tags and fused reporters may be left off the sequences shown.

T1: GST-Su(Hw) (Drosophila) (UniProt P08970)
T1 sequence: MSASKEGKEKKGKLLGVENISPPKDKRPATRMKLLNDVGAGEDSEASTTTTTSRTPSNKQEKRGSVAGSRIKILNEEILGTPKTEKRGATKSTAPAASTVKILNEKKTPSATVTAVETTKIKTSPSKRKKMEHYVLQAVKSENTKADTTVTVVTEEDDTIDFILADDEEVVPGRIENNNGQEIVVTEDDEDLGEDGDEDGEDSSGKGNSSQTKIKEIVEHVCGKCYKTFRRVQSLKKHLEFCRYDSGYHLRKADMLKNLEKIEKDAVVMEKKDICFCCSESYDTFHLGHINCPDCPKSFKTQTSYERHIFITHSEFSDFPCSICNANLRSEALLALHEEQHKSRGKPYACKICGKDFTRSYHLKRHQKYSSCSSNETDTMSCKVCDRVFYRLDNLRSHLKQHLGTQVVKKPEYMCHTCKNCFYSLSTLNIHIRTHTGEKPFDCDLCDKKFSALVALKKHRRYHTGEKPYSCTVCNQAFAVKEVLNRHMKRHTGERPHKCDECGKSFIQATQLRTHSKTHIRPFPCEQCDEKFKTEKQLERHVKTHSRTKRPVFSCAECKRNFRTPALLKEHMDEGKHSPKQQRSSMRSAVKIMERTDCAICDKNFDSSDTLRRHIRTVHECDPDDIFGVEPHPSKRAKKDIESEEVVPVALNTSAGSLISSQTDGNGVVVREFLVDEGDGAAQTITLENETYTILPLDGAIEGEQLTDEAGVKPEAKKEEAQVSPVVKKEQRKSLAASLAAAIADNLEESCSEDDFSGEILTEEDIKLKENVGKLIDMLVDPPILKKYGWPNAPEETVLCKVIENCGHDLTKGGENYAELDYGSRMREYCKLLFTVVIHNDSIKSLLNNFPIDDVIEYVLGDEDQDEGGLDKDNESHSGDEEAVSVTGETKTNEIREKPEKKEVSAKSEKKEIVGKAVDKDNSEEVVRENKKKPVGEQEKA


Legend:
GST-Su(Hw) (Drosophila) = biological target: T1, GST-Su(Hw) (Drosophila); assay: pull-down; 2 µg GST or GST fusion protein immobilised on Glutathione-Agarose, 35 µg soluble His-Mod(mdg4)2.2 in 350 µL PBSMT (137 mM NaCl, 250 mM MgCl2, 0.3% Triton X-100, 1 mM DTT, 100 mg/mL BSA), 4°C, 2 h, 5 washes; bound protein detected by Western blotting; both purified
[1] = biological target: GST-Shep isoform A (Drosophila (Oregon R)); assay: pull-down; GST or GST fusion protein immobilised on Glutathione-Agarose, soluble His-Su(Hw) in HBSM (50 mM HEPES pH 6.7, 150 mM NaCl, 5 mM KCl, 2.5 mM MgCl2) with 0.3% Triton-X 100, 0.2 M KCl, 1 mM DTT, 100 mg/mL BSA, 4°C, 2 h; bound protein detected by Western blotting; both purified
[2] = biological target: GST-Shep isoform B/D (Drosophila (Oregon R)); assay: as above
[3] = biological target: GST-Shep isoform E (Drosophila (Oregon R)); assay: as above
[4] = biological target: GST-Mod(mdg4)2.2 (Drosophila); assay: as above

Row | binding (GST-Su(Hw) (Drosophila)) | binding [1] | binding [2] | binding [3] | binding [4] | Molecule
1 | binds |  |  |  |  | His-Mod(mdg4)2.2 (Drosophila)
2 |  | binds | binds | binds | binds | His-Su(Hw) (protein, UniProt P08970 1-941) MSASKEGKEKKGKLLGVENISPPKDKRPATRMKLLNDVGAGEDSEASTTTTTSRTPSNKQEKRGSVAGSRIKILNEEILGTPKTEKRGATKSTAPAASTVKILNEKKTPSATVTAVETTKIKTSPSKRKKMEHYVLQAVKSENTKADTTVTVVTEEDDTIDFILADDEEVVPGRIENNNGQEIVVTEDDEDLGEDGDEDGEDSSGKGNSSQTKIKEIVEHVCGKCYKTFRRVQSLKKHLEFCRYDSGYHLRKADMLKNLEKIEKDAVVMEKKDICFCCSESYDTFHLGHINCPDCPKSFKTQTSYERHIFITHSEFSDFPCSICNANLRSEALLALHEEQHKSRGKPYACKICGKDFTRSYHLKRHQKYSSCSSNETDTMSCKVCDRVFYRLDNLRSHLKQHLGTQVVKKPEYMCHTCKNCFYSLSTLNIHIRTHTGEKPFDCDLCDKKFSALVALKKHRRYHTGEKPYSCTVCNQAFAVKEVLNRHMKRHTGERPHKCDECGKSFIQATQLRTHSKTHIRPFPCEQCDEKFKTEKQLERHVKTHSRTKRPVFSCAECKRNFRTPALLKEHMDEGKHSPKQQRSSMRSAVKIMERTDCAICDKNFDSSDTLRRHIRTVHECDPDDIFGVEPHPSKRAKKDIESEEVVPVALNTSAGSLISSQTDGNGVVVREFLVDEGDGAAQTITLENETYTILPLDGAIEGEQLTDEAGVKPEAKKEEAQVSPVVKKEQRKSLAASLAAAIADNLEESCSEDDFSGEILTEEDIKLKENVGKLIDMLVDPPILKKYGWPNAPEETVLCKVIENCGHDLTKGGENYAELDYGSRMREYCKLLFTVVIHNDSIKSLLNNFPIDDVIEYVLGDEDQDEGGLDKDNESHSGDEEAVSVTGETKTNEIREKPEKKEVSAKSEKKEIVGKAVDKDNSEEVVRENKKKPVGEQEKA
